Data as given in PubChem BioAssay AID1224826 (NIAID, 2016).
This is an unselected part of about 17,000 reagents. About 1,110 of all reagents (6.6%) count as active. 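Active means lowered or raised reporter signal; replicate intensities are raw and not normalised per plate.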 Not all columns of the deposit are shown.

Assay: 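Regulators of Tlr4 signalling leading to Tnf-alpha expression in macrophages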 (primary screen)
Cell system: RAW264.7 G9 macrophages from mouse bearing reporters for p65 (GFP) and the Tnf promoter (mCherry)
Reagent: siRNA pool against mouse genes, 100 nM
Time to read-out: 16 h of LPS stimulation, after 2 days of siRNA transfection
Treatment: bacterial lipopolysaccharide (Salmonella minnesota R595), 10 ng/ml
Measurement: 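Nuclear mCherry signal of the Tnf promoter reporter measured by imaging after background removal, scaled to each plate median and turned into robust z-scores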
Scale: Tnf reporter robust z-score: higher = stronger Tnf promoter reporter signal after LPS
Rule for the call: 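Called active when robust z-score is at most -1.3, matching the median of the Tlr4 knock-down control, or over 3; control wells and wells with under 50 cells never active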
Meaning of the calls: active = Tnf reporter clearly lowered or raised; inactive = no clear change in Tnf reporter

Depletion of Acoxl resulted in: Tnf reporter robust z-score 1.6; fewer than 50 cells in well enough cells in well; inactive. Silencing of Eva1b came out at: fewer than 50 cells in well fewer than 50 cells per well; well left out of calls; inactive. Coq8b gave Tnf reporter robust z-score -0.04; fewer than 50 cells in well enough cells in well; inactive. Depletion of Ctsd resulted in: Tnf reporter robust z-score -0.83; fewer than 50 cells in well enough cells in well; inactive. With knock-down of Myl9, the screen gave Tnf reporter robust z-score -0.03; fewer than 50 cells in well enough cells in well; inactive. Silencing of Mbtps2 gave: Tnf reporter robust z-score 0.92; fewer than 50 cells in well enough cells in well; inactive.

After knock-down of Snrnp200, the record shows Tnf reporter robust z-score -1; fewer than 50 cells in well enough cells in well; inactive. Hcar1 gave Tnf reporter robust z-score -0.97; fewer than 50 cells in well enough cells in well; inactive. Ptpn18 showed Tnf reporter robust z-score -0.54; fewer than 50 cells in well enough cells in well; inactive. After knock-down of Asb13, the record shows Tnf reporter robust z-score 0.13; fewer than 50 cells in well enough cells in well; inactive.

A portion of the results above:
Hcar1: Tnf reporter robust z-score = -0.97; fewer than 50 cells in well = enough cells in well; activity call = inactive
Ptpn18: Tnf reporter robust z-score = -0.54; fewer than 50 cells in well = enough cells in well; activity call = inactive

The listing continues.
Hacd2 showed Tnf reporter robust z-score 0.13; fewer than 50 cells in well enough cells in well; inactive. For Fzd4, the values are Tnf reporter robust z-score 0.15; fewer than 50 cells in well enough cells in well; inactive. Silencing of Or10d5j came out at: Tnf reporter robust z-score -0.14; fewer than 50 cells in well enough cells in well; inactive. After knock-down of Ddit3, the record shows Tnf reporter robust z-score -0.82; fewer than 50 cells in well enough cells in well; inactive. Pfkm showed Tnf reporter robust z-score 0.9; fewer than 50 cells in well enough cells in well; inactive. Pde4c showed Tnf reporter robust z-score 0.04; fewer than 50 cells in well enough cells in well; inactive.

After knock-down of Mcph1 the results were Tnf reporter robust z-score 0.25; fewer than 50 cells in well enough cells in well; inactive. After knock-down of Cadps, the record shows Tnf reporter robust z-score -0.57; fewer than 50 cells in well enough cells in well; inactive. Stag2 gave Tnf reporter robust z-score -0.24; fewer than 50 cells in well enough cells in well; inactive. Scamp4 scored Tnf reporter robust z-score 0.82; fewer than 50 cells in well enough cells in well; inactive. After knock-down of Cryba2 the results were Tnf reporter robust z-score 0.87; fewer than 50 cells in well enough cells in well; inactive.
